These are yes or no findings as the source states them, for the method shown. Tags and fused reporters may be left off the sequences shown.
Target: ^ΔNYME1L (catalytic domain of YME1L without the hex-tag) (homo sapiens) (UniProt Q96TA2)
Assay: SEC

binding: no binding
B1: ^ΔNYME1L (catalytic domain of YME1L without the hex-tag) (domain or fragment, UniProt Q96TA2 317-773)
chain: RFRTTTGLDSAVDPVQMKNVTFEHVKGVEEAKQELQEVVEFLKNPQKFTILGGKLPKGILLVGPPGTGKTLLARAVAGEADVPFYYASGSEFDEMFVGVGASRIRNLFREAKANAPCVIFIDELDSVGGKRIESPMHPYSRQTINQLLAEMDGFKPNEGVIIIGATNFPEALDNALIRPGRFDMQVTVPRPDVKGRTEILKWYLNKIKFDQSVDPEIIARGTVGFSGAELENLVNQAALKAAVDGKEMVTMKELEFSKDKILMGPERRSVEIDNKNKTITAYHESGHAIIAYYTKDAMPINKATIMPRGPTLGHVSLLPENDRWNETRAQLLAQMDVSMGGRVAEELIFGTDHITTGASSDFDNATKIAKRMVTKFGMSEKLGVMTYSDTGKLSPETQSAIEQEIRILLRDSYERAKHILKTHAKEHKNLAEALLTYETLDAKEIQIVLEGKKLEVR
